Binding signal data for 42 sequences are collected here from article PMC7819943, “Rice protein-binding microarrays: a tool to detect cis-acting elements near promoter regions in rice”.

Chains of the proteins cited; added tags and fusions are not shown.
UniProt Q0JBA9, entry or part of it: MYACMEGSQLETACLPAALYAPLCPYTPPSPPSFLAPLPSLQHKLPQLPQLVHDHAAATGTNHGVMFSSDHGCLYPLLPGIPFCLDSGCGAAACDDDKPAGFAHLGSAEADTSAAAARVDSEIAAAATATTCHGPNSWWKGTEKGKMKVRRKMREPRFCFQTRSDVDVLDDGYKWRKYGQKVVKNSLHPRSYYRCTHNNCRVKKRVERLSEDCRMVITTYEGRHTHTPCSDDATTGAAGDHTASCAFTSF

The list shows a part of the results.

This assay addresses OsWRKY34 (Oryza sativa, UniProt Q0JBA9 1-250). Nature of the assay: protein-binding microarray (RPBM); PBS, 2% BSA, 51.3 ng/ul salmon testes DNA, 50 uM zinc acetate, 200 nM TF, 25 C, 1 h; high values mean tight binding. Conditions: protein: recombinant; tags: N-terminal polyhistidine and DsRed monomer fusion (pET32a); label: CyDye5-dUTP incorporated in the synthesized complementary strand; 3' TTTTT single-stranded linker to array surface; dsDNA, one strand shown. A digest of the protocol: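 Polyhistidine-tagged DsRed fusions of transcription factors, joined at the N-terminus, were expressed in E. coli BL21-CodonPlus and isolated on Ni–NTA. They were incubated at 200 nM for 1 h at 25 °C on a custom Agilent array, double-stranded and BSA-blocked, in PBS with 2% BSA, salmon testes DNA and 50 µM zinc acetate. The binding signal is per-feature fluorescence intensity (arbitrary units) read on an Axon 4000B scanner after washing.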
Regarding “CCTATGCTTCCGCCGCATTCTGGTGAGCATCCTTACGCAACGGAGTCACCTAGTGCAG”, the binding signal is 8620 fluorescence intensity (a.u.).

Regarding “CTTCCCTTCCCACCGCTGCAACCCACCATTATTCTCCTCCCGGAGTCACCTAGTGCAG”, the binding signal was 8570 fluorescence intensity (a.u.).

On to “AATGATGGGAGGCTATATCAACTGTCAAACTGGCTAATTTCGGAGTCACCTAGTGCAG”, for which the binding signal was 9220 fluorescence intensity (a.u.).

Consider “ATTTTCGCAGCCTCGCTCCACGCCGTTCCGTTTCCTCATCCGGAGTCACCTAGTGCAG”, for which the binding signal was 9540 fluorescence intensity (a.u.).

As to “ACAATTTTTTTTTCCAAAACCTTAGACACGTGTATCTGTCCGGAGTCACCTAGTGCAG”, the binding signal is 10200 fluorescence intensity (a.u.).

For the sequence “AATTTCGCCTGCACCCACACCTGATACCACACCACCACTCCGGAGTCACCTAGTGCAG”, the binding signal was 8040 fluorescence intensity (a.u.).

Regarding “GTCGCCTCATCGCTTGTTCTTGCTGTAATTTTGTTCTTGACGGAGTCACCTAGTGCAG”, the binding signal was 14400 fluorescence intensity (a.u.).

For the sequence “TTTCACCTTGTAGTCTAACCACTAATTTTTTTTGAACGACCGGAGTCACCTAGTGCAG”, the binding signal was 8270 fluorescence intensity (a.u.).

Take “AGGATGATGAGTTGTTCCATTTCCTGTAGTATCCCTGTTTCGGAGTCACCTAGTGCAG”: the binding signal is 8560 fluorescence intensity (a.u.).

“TGCTGCACCCTCAACGTTCCGGTAATCCTATTGGCGCACACGGAGTCACCTAGTGCAG”: the binding signal was 8470 fluorescence intensity (a.u.).

“GGTTTCTTTTCTCCTTTGACCTTTTCGATTGAGAGAGCTCCGGAGTCACCTAGTGCAG”: the binding signal is 9040 fluorescence intensity (a.u.).

For the sequence “GCGGCGTGTGTGGTTTGGTTTGGGATAAAGCGGCCGTGGCCGGAGTCACCTAGTGCAG”, the binding signal was 8810 fluorescence intensity (a.u.).

As for “GACTCGGTCTTCATCTGACGTAACGCTTACGTGGCAATTCCGGAGTCACCTAGTGCAG”, the binding signal was 8820 fluorescence intensity (a.u.).

In the case of “CTATGGCGGTCACCTTGTATGGCCTTCCAAGGTAGTATTTCGGAGTCACCTAGTGCAG”, the binding signal was 8270 fluorescence intensity (a.u.).

As for “AACAGTGAGCATTGTGCGTGCGAAAACCTGACGTCTTCTGCGGAGTCACCTAGTGCAG”, the binding signal is 8410 fluorescence intensity (a.u.).

Regarding “GTATTACGTTGTCATTCCTTTTTGCCATTGGTTTTCATCGCGGAGTCACCTAGTGCAG”, the binding signal is 8660 fluorescence intensity (a.u.).

With “TTGACTTTTTAAAATATGTTTGACCGTTCGTCTTATTCAACGGAGTCACCTAGTGCAG”, the binding signal is 8040 fluorescence intensity (a.u.).

For “ACTCGCTCGCTCGCTCGCCTCGCGCACCCGCACCGCCCGCCGGAGTCACCTAGTGCAG”, the binding signal was 9260 fluorescence intensity (a.u.).

Consider “GGAATTAGGGTTGGGTCCGTGTCGGGCTCGGGACTCCTGCCGGAGTCACCTAGTGCAG”, for which the binding signal was 8280 fluorescence intensity (a.u.).

“TCCGGTCTCTACATTCAACTGAATATATGCAACCTTAAAACGGAGTCACCTAGTGCAG”: the binding signal was 8680 fluorescence intensity (a.u.).

For “TTTATTCACATACTACTTTTCGTTTGCAAATATGCCATTTCGGAGTCACCTAGTGCAG”, the binding signal was 10800 fluorescence intensity (a.u.).

On to “AACTTCTAACTTTTCCATCACATCATTTCAATTTCAACCACGGAGTCACCTAGTGCAG”, for which the binding signal is 8650 fluorescence intensity (a.u.).

With “ATTGCTTGTTCTCCTTGTCTGATGAACAAAGTAATTGCTACGGAGTCACCTAGTGCAG”, the binding signal was 9380 fluorescence intensity (a.u.).

Regarding “GTCTGCTTTAAGTATATACTTTCTCCGTTTCACAATGTAACGGAGTCACCTAGTGCAG”, the binding signal is 10400 fluorescence intensity (a.u.).

Regarding “ACAAAACAGAGTCAAAATCACCGAGGGATCAGTTTGCACTCGGAGTCACCTAGTGCAG”, the binding signal was 8230 fluorescence intensity (a.u.).

“AACTCTATTTGTCCTTTCTTATCCGGAACTCGTTCTATATCGGAGTCACCTAGTGCAG”: the binding signal is 8660 fluorescence intensity (a.u.).

As for “TGGATTAGTAGCTTTTTCTTTTCTTTATTTTTTTAAAAAACGGAGTCACCTAGTGCAG”, the binding signal is 9710 fluorescence intensity (a.u.).

Turning to “TTTGTGCGGCTGCTTTTCCATTTCCGCCCACATCGCCTTCCGGAGTCACCTAGTGCAG”, the binding signal was 8140 fluorescence intensity (a.u.).

Regarding “ATCTTACCCTTTTTTCCCTGCATTTCAGCATTGCAGCACTCGGAGTCACCTAGTGCAG”, the binding signal is 13200 fluorescence intensity (a.u.).

Take “ATCGCTCTCTTTTTCTCGGTTGTTTTGGATTTGTAGCATCCGGAGTCACCTAGTGCAG”: the binding signal is 11400 fluorescence intensity (a.u.).

On to “CGCGCGCCCTCGCCACTCGCGAGCTTCTACTGCTGTCTCTCGGAGTCACCTAGTGCAG”, for which the binding signal was 11400 fluorescence intensity (a.u.).

For the sequence “CGTTATTATTGTCTTTCGCATGATCGTATCCGCACGTATGCGGAGTCACCTAGTGCAG”, the binding signal is 10900 fluorescence intensity (a.u.).

As for “CTATTCTTGTCGTTACTCCTCCCTCCACTTTCTCGCGGTCCGGAGTCACCTAGTGCAG”, the binding signal is 9190 fluorescence intensity (a.u.).

Turning to “TTTTGGATGGTGGTTTCGCTAACATGGCGTCTACGTGGCACGGAGTCACCTAGTGCAG”, the binding signal is 8310 fluorescence intensity (a.u.).

For “TTCGCGTTGCCGCGTTCGTCTCCTTGGCATCTGATCCTATCGGAGTCACCTAGTGCAG”, the binding signal is 8240 fluorescence intensity (a.u.).

As for “GCAAGAAGGGAAGGGAAGGGGACTAGGGGAGGGCGAGATGCGGAGTCACCTAGTGCAG”, the binding signal is 8040 fluorescence intensity (a.u.).

Consider “GGCAGGGAGGGAGGGCGGCGGTACGGGCGGCGGCGCGCACCGGAGTCACCTAGTGCAG”, for which the binding signal is 14800 fluorescence intensity (a.u.).

Take “CCACCCATCCGGCCGTAACCCGCTGTCCACCATAATCCTGCGGAGTCACCTAGTGCAG”: the binding signal was 8980 fluorescence intensity (a.u.).

For “TCCCCACCTCCACTCCCTTCCTCATTGCACACACGAGAAACGGAGTCACCTAGTGCAG”, the binding signal is 10700 fluorescence intensity (a.u.).

“CTTATCCGGAATTCCCTCCATACCCGAGGTCGGATTCCGTCGGAGTCACCTAGTGCAG”: the binding signal is 8500 fluorescence intensity (a.u.).

For the sequence “TGGACTTGGAGTTGTAATAGGTGGTAGGGGTGGAGATAAACGGAGTCACCTAGTGCAG”, the binding signal is 8570 fluorescence intensity (a.u.).

On to “AGCTGAGCTGCGAGCTCTCTCTCTCTTTCTCTCGGCAGCTCGGAGTCACCTAGTGCAG”, for which the binding signal is 8580 fluorescence intensity (a.u.).
